Measurements published in publication PMC3135607.
These are yes or no findings as the source states them, for the method shown. Binding seen in cells or lysates may run through a third protein. Some results given as binding are weak or reduced against the parent protein; the word gives no strength.

Chains of the proteins cited; added tags and fusions are not shown.
UniProt P13569: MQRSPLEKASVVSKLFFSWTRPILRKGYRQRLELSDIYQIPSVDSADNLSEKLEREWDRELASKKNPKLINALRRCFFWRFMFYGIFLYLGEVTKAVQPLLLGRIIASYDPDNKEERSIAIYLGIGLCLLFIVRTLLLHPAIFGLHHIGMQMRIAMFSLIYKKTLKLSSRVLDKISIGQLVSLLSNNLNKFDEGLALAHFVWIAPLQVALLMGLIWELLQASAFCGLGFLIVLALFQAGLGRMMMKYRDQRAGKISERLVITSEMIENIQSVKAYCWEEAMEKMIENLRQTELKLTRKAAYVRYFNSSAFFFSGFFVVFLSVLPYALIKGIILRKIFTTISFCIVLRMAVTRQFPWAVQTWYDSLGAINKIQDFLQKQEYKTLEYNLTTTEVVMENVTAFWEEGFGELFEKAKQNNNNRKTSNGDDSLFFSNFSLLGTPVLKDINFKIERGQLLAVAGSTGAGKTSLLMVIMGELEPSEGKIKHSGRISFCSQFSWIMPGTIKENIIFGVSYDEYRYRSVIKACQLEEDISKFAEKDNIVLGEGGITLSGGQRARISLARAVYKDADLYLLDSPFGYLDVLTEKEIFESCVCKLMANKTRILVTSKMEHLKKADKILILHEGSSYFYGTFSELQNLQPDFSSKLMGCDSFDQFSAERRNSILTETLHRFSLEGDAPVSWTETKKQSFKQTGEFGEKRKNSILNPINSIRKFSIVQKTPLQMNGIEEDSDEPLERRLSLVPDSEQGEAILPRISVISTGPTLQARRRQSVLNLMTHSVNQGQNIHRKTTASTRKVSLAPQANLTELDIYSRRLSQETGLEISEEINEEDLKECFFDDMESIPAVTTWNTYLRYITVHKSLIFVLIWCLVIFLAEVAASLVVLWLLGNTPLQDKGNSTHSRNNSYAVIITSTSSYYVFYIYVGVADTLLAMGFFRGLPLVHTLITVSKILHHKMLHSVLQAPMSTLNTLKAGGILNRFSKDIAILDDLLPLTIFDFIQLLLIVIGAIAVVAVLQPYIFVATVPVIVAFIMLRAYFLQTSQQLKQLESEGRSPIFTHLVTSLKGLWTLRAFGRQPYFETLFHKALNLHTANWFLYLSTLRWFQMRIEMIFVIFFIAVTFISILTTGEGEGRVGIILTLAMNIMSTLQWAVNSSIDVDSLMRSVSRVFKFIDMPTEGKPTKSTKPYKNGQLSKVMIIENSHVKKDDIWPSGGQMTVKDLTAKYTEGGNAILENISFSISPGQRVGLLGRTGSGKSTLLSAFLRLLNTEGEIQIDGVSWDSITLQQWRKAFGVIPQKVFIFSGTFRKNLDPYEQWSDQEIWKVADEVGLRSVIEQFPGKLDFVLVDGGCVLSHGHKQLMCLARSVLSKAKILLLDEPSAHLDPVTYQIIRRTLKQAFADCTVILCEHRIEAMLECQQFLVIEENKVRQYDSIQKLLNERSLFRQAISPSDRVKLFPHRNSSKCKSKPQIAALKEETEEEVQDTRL
UniProt Q14289: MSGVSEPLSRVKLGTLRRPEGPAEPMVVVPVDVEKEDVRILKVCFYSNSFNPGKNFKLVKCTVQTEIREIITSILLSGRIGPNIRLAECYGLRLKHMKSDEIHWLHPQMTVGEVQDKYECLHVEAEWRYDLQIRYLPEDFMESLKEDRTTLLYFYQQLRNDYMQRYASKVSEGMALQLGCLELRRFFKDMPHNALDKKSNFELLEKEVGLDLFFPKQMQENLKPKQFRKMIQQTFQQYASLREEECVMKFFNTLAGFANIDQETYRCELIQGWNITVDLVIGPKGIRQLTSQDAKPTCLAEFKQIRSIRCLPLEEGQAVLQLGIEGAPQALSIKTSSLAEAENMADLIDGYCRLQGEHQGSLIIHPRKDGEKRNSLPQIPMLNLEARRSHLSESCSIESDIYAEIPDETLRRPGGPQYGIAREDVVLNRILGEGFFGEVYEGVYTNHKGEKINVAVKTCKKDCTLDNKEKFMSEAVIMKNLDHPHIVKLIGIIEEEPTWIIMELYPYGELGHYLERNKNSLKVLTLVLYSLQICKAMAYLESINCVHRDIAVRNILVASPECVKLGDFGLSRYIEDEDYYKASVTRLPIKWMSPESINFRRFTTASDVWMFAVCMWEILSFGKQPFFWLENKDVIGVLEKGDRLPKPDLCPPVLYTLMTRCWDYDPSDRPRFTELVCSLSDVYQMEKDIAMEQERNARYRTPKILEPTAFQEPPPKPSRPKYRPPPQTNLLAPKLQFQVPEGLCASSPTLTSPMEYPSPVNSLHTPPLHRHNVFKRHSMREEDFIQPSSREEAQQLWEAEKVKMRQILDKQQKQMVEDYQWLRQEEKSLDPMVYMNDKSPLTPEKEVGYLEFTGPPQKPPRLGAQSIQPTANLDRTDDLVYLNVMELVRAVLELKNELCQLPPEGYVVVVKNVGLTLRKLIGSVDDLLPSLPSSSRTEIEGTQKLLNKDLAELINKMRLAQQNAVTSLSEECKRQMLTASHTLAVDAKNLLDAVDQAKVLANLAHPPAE

Key:
[1] = biological target: Cystic Fibrosis Transmembrane Conductance Regulator (CFTR), endogenous wild type (human (endogenous in Calu-3)) (UniProt P13569); test: co-IP; lysates of IB3-1 cells transiently transfected with wt-CFTR and of Calu-3 cells (endogenous CFTR); immunoprecipitated with CFTR antibody and protein A/G beads, 4°C overnight; immunoblotted with PYK2 antibody
[2] = biological target: wt-CFTR-GFP (Cystic Fibrosis Transmembrane Conductance Regulator, wild type, GFP-tagged) (human) (UniProt P13569); test: as above
[3] = biological target: T1, Crk-associated substrate (p130cas) (human (endogenous in IB3-1)) (UniProt P56945); test: co-IP; IB3-1 cell lysate, endogenous proteins; protein A/G beads with antibody, 4°C overnight, washed three times with lysis buffer, immunoblot; which of the two was precipitated is not told
T1 sequence: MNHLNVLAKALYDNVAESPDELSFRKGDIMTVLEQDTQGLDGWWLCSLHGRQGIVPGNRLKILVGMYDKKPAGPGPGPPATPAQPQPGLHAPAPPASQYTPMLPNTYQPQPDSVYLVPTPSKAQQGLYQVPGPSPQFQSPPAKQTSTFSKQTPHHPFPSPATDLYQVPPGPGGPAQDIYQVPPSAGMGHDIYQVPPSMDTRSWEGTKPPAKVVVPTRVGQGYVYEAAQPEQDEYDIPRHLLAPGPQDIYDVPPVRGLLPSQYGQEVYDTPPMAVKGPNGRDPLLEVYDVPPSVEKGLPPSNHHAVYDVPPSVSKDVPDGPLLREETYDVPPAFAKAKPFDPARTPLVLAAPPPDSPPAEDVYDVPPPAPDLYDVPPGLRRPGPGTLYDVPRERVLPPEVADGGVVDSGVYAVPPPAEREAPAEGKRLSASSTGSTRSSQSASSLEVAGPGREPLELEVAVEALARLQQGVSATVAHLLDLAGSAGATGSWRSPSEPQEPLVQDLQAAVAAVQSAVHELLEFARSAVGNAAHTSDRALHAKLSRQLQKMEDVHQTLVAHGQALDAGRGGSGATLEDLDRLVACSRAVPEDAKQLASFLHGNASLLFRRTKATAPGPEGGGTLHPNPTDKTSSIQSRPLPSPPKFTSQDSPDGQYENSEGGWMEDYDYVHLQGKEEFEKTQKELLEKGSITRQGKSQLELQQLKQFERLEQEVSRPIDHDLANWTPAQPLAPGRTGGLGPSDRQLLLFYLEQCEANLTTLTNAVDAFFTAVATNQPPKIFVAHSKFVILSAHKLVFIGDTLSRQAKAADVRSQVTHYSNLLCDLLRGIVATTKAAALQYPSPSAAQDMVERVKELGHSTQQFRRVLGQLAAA

binding [1]: binds | binding [2]: binds | binding [3]: binds
Substance: Proline-rich tyrosine kinase 2 (PYK2) (from UniProt Q14289 1-1009)
